{
  "source": "patent US20110044952A1",
  "about": "“AMPLIFICATION OF CANCER-SPECIFIC ONCOLYTIC VIRAL INFECTION BY HISTONE DEACETYLASE INHIBITORS” (Ottawa Health Research Institute, priority 2007, published 2011)",
  "tested_on": "semliki forest virus (VA7)",
  "test": "Semliki forest virus (VA7) spread and titers in glioma cell lines",
  "assay_type": "cell-based",
  "note": "For at least one compound, name, drawing or mass did not settle the structure.",
  "data": [
    {"smiles": "CCC(=O)CCCCC[C@@H]1NC(=O)[C@H]2CCCCN2C(=O)[C@H]([C@@H](C)CC)NC(=O)[C@H](Cc2cn(OC)c3ccccc23)NC1=O", "note": "[Apicidin]", "values": [
      {"measurement": "VA7 viral titers (pfu/ml)", "setting": "SAHA 5 μM or Apicidin 1 μM 1 hour pre-treatment, MOI 0.01, DBT, CT2A, U251 cells, vs DMSO", "result": "enhanced the viral titers"},
      {"measurement": "Semliki forest virus spread (GFP photomicrographs)", "setting": "SAHA 5 μM or Apicidin 1 μM, DBT cells, MOI 0.01, 30 hours", "result": "Enhance"}
    ]}
  ]
}
